Assay results as given in PubChem BioAssay AID720513 (Broad Institute, 2013).
The whole screen tested about 2,100 compounds, of which about 480 (23%) were called active. The shares of active, inactive and inconclusive entries below differ from those in the screen.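 How the source made its calls: active means fitted curve reaches 40% activation at or below the top valid concentration, in every replicate test; inconclusive means replicate tests disagree on the call; inactive means the rest, including activity in the opposite direction.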

Assay: activators raising PGC1a acetylation in cells, dose response, cell-based, cherry-picked samples, set 6 (AID 720513);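 further: cells made to overexpress flag tagged PGC1a plus GCN5 acetyltransferase by viral infection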
Conditions: U2OS PGC1a acetylation AlphaLISA, overnight, 0 = neutral, -100 = inhibitor control; at 19.5 µM (top of the series) unless noted

**Q.** With CCOC(=O)Cn1cnc2scc(-c3ccccc3)c2c1=O as the molecule, how does the activation (acetylation increase) read?
**A.** inconclusive: 18%

**Q.** With O=C(Nc1cccc2ccccc12)OC1C=CS(=O)(=O)C1 (stereo not given) as the molecule, how does the activation (acetylation increase) read?
**A.** inconclusive: 10.8%

**Q.** With CCC(C)(CC(=O)O)CC(=O)Nc1cc(C(F)(F)F)cc(C(F)(F)F)c1 (stereo not given) as the molecule, how does the activation (acetylation increase) read?
**A.** inconclusive: 16.3%

**Q.** For COc1ccc(CCCNC(=O)C2(C)Cc3c(-c4ccc5c(c4)OCO5)ccnc3O2)cc1 (stereo not given), which activation (acetylation increase) is on record?
**A.** inconclusive: 25%

**Q.** With O=C(Cc1ccccn1)N[C@@H]1CC[C@@H](CCn2cc(-c3ccccc3)nn2)O[C@H]1CO as the molecule, how does the activation (acetylation increase) read?
**A.** inconclusive: -14.1%

**Q.** Which activation (acetylation increase) does the source give for Cc1ccccc1S(=O)(=O)N[C@H]1CC[C@H](CCn2cc(Cc3ccccc3)nn2)O[C@@H]1CO here?
**A.** inactive: -0.755%

**Q.** With C[C@@H]1CCCCO[C@@H](CN(C)Cc2ccc(Cl)c(Cl)c2)[C@H](C)CN([C@@H](C)CO)C(=O)c2cc(NC(=O)CCC(F)(F)F)ccc2O1 as the molecule, how does the activation (acetylation increase) read?
**A.** inconclusive: 32.3%

**Q.** Which activation (acetylation increase) does the source give for CCCNC(=O)[C@H]1[C@H](CO)[C@H]2Cn3c(ccc(-c4ccccc4)c3=O)[C@H]2N1C(=O)C1CC1 here?
**A.** inconclusive: 37.3%

**Q.** Which activation (acetylation increase) does the source give for CCCNC(=O)c1nnsc1S(=O)c1ccc(Cl)cc1 (stereo not given) here?
**A.** inactive: -98.5%

**Q.** With COc1cc(OC)cc(C(=O)N[C@H](C(=O)OCC(=O)NC(=O)NC(C)(C)C)C(C)C)c1 as the molecule, how does the activation (acetylation increase) read?
**A.** inactive: -10.6%

**Q.** With N=c1n(CCN2CCCC2)c2ccccc2n1CC(O)c1ccc(Cl)c(Cl)c1 (stereo not given) as the molecule, how does the activation (acetylation increase) read?
**A.** inconclusive: 54.5%

**Q.** For NC(=O)C1CCCCc2c1[nH]c1ccc(Cl)cc21 (stereo not given), which activation (acetylation increase) is on record?
**A.** inconclusive: 753%

**Q.** With N#CC1=C(N)Oc2cc(N)ccc2C1c1cccc(F)c1 (stereo not given) as the molecule, how does the activation (acetylation increase) read?
**A.** inconclusive: -7%

**Q.** With O=C(CCCc1cccs1)NCCc1c[nH]c2ccccc12 as the molecule, how does the activation (acetylation increase) read?
**A.** inactive: 13.6%

**Q.** Which activation (acetylation increase) does the source give for Cn1c(CN2CCCC2)nc2cc(NC(=O)COc3ccc(Cl)cc3)ccc21 here?
**A.** inconclusive: 35.3%

**Q.** For CC(=O)c1cc2c(cc1NS(=O)(=O)c1ccc(C)cc1)OCO2, which activation (acetylation increase) is on record?
**A.** inconclusive: 0.485%

**Q.** Which activation (acetylation increase) does the source give for COc1ccc(OC)c(-n2c(-c3ccc(C)cc3)n[nH]c2=S)c1 here?
**A.** inactive: 18.7%

**Q.** Which activation (acetylation increase) does the source give for O=C(NCc1cccnc1)/C(=C\c1ccc(-c2cccc(Cl)c2)o1)S(=O)(=O)c1ccccc1 here?
**A.** inactive: -82.5%

**Q.** For CCOC(=O)C(Cc1ccc(NC(=O)/C(=C\c2ccccc2)NC(=O)c2ccccc2)cc1)N1C(=O)c2ccccc2C1=O (stereo not given), which activation (acetylation increase) is on record?
**A.** inconclusive: 39.8%

**Q.** With O=C(COc1cccnc1[N+](=O)[O-])NCCc1ccc(Cl)cc1 as the molecule, how does the activation (acetylation increase) read?
**A.** inconclusive: 38.7%

**Q.** With O=C(Nc1cccc(S(=O)(=O)N2CCOCC2)c1)c1ccco1 as the molecule, how does the activation (acetylation increase) read?
**A.** inconclusive: 48.2% [at 10 µM]

**Q.** With O=C(Cn1cc(C(F)(F)F)ccc1=O)Nc1cc(S(=O)(=O)N2CCOCC2)ccc1Cl as the molecule, how does the activation (acetylation increase) read?
**A.** inactive: 6.03%

**Q.** Which activation (acetylation increase) does the source give for CC(C)CC#Cc1ccc2c(c1)O[C@H](CN(C)Cc1ccccc1)[C@H](C)CN([C@@H](C)CO)S2(=O)=O here?
**A.** inconclusive: 19.1%

**Q.** With Cc1cc(=O)oc2cc(OCC(=O)OCC(=O)Nc3ccccc3F)ccc12 as the molecule, how does the activation (acetylation increase) read?
**A.** inconclusive: 32%

**Q.** Which activation (acetylation increase) does the source give for O=C(CC1CC1)N[C@@H]1CC[C@H](CCNS(=O)(=O)c2ccc(Cl)cc2)O[C@H]1CO here?
**A.** inconclusive: 46%

**Q.** Which activation (acetylation increase) does the source give for CC(=O)c1cccc(-c2ccnc3c2CC(C(=O)NCC2CC2)O3)c1 (stereo not given) here?
**A.** inactive: 19.7%

**Q.** Which activation (acetylation increase) does the source give for C[C@@H]1CN([C@@H](C)CO)C(=O)c2cccc(NC(=O)c3ccc(-c4nccs4)cc3)c2O[C@@H]1CN(C)C(=O)Nc1ccc(C(F)(F)F)cc1 here?
**A.** inconclusive: 10.9%

**Q.** For C#CCN1[C@H](/C=C/C2CC2)[C@H](Cc2ccccc2)OC(=O)[C@@H]1[C@@H]1N[C@@H](C(=O)OC)C(C)(C)S1, which activation (acetylation increase) is on record?
**A.** inconclusive: -3.54%

**Q.** With COc1ccc(C2C(C(=O)Nc3ccccc3)=C(C)Nc3nc(CCCO)nn32)cc1 (stereo not given) as the molecule, how does the activation (acetylation increase) read?
**A.** inconclusive: 69.2%

**Q.** For COc1cccc(C(=O)NCCS(=O)(=O)N2CCN(C(=O)c3ccco3)CC2)c1, which activation (acetylation increase) is on record?
**A.** inactive: 3.59%

**Q.** With Cc1cc(Nc2ccccc2)cc(=O)n1C as the molecule, how does the activation (acetylation increase) read?
**A.** inconclusive: 16.7%

**Q.** With C=CCNC(=O)c1ccc(CN2CCC(Cc3ccccc3)CC2)cc1 as the molecule, how does the activation (acetylation increase) read?
**A.** inconclusive: 29.6%

**Q.** Which activation (acetylation increase) does the source give for CC(C)C#Cc1ccc([C@@H]2[C@H](CO)N3C(=O)CN(C(=O)NC4CCCC4)C[C@@H]23)cc1 here?
**A.** inconclusive: 23.8%

**Q.** For COc1cc(Cn2c(N)c(C#N)c3nc4ccccc4nc32)cc(OC)c1, which activation (acetylation increase) is on record?
**A.** inconclusive: -2.36%

**Q.** With C/C=C/c1ccc2c(c1)O[C@H](CN(C)C(=O)C1CC1)[C@H](C)CN([C@@H](C)CO)S2(=O)=O as the molecule, how does the activation (acetylation increase) read?
**A.** inactive: 24.5%

**Q.** Which activation (acetylation increase) does the source give for C[C@@H]1CN([C@H](C)CO)C(=O)CCCn2nncc2CO[C@H]1CN(C)C(=O)C1CC1 here?
**A.** inconclusive: 49.1%

**Q.** For NC(Cc1ccccc1)c1csc(NC(=O)Nc2ccccc2Oc2ccccc2)n1 (stereo not given), which activation (acetylation increase) is on record?
**A.** inconclusive: -72.5%

**Q.** Which activation (acetylation increase) does the source give for O=C(CN1CCC(c2nc3ccccc3[nH]2)CC1)Nc1ccc2c(c1)OCO2 here?
**A.** inconclusive: 50.9%

**Q.** Which activation (acetylation increase) does the source give for O=C(c1ccc(F)cc1)N1CC(=O)N2[C@H](CO)[C@@H](c3ccc(C#CCC4CCCC4)cc3)[C@@H]2C1 here?
**A.** inconclusive: 14.4% [at 21 µM]

**Q.** Which activation (acetylation increase) does the source give for CCOC(=O)c1ccc(NC(=O)CCS(=O)(=O)c2ccc(Br)s2)cc1 here?
**A.** inactive: 16.1%

**Q.** With CC(C)c1ccc(NC(=O)CCNS(=O)(=O)c2cccc3nonc23)cc1 as the molecule, how does the activation (acetylation increase) read?
**A.** inactive: 25.9%

**Q.** For CC(C)(CO)CNc1ccn2nccc2n1, which activation (acetylation increase) is on record?
**A.** inactive: 9.81%

**Q.** For C=CCNC(=O)c1cnn(-c2ccccc2)c1-c1ccccc1, which activation (acetylation increase) is on record?
**A.** inactive: -2.56%

**Q.** Which activation (acetylation increase) does the source give for CC(C)NC(=O)Nc1ccc2c(c1)C(=O)N([C@@H](C)CO)C[C@H](C)[C@@H](CN(C)C(=O)CCC(F)(F)F)OCCCC[C@@H](C)O2 here?
**A.** inactive: 10.8%

**Q.** Which activation (acetylation increase) does the source give for COCc1ccc(CN2CCC(n3nccc3NC(=O)c3ccc4c(c3)OCO4)CC2)o1 here?
**A.** inactive: -5.4%

**Q.** With CC(=O)c1c(-c2ccccc2)[nH]c2ccccc12 as the molecule, how does the activation (acetylation increase) read?
**A.** inconclusive: 30.8%

**Q.** For Cc1cc(C)n2c(SCC(=O)NCc3ccco3)nnc2n1, which activation (acetylation increase) is on record?
**A.** inconclusive: 22.2%

**Q.** With Cc1ccc(CNn2cnnc2SCC(=O)NC(C)(C)C)cc1 as the molecule, how does the activation (acetylation increase) read?
**A.** inconclusive: -22.9%

**Q.** Which activation (acetylation increase) does the source give for CCn1c(SCC(N)=O)nnc1C(C)C here?
**A.** inconclusive: 47.9%

**Q.** Which activation (acetylation increase) does the source give for O=C(c1ccccc1-c1ccccc1)N1CCN(c2ccccn2)CC1 here?
**A.** inactive: 4.85%
